# Source: EP4730355A1, “TYPING SYSTEM AND METHOD FOR HR-POSITIVE/HER2-NEGATIVE BREAST CANCER” (Lumitype Medical (Huzhou) Co., Ltd., priority 2023, dated 2024)
# At least one compound was matched to its structure with a doubt left.
# Molecular target: SNF4 tumors
# Experiment: PDO drug sensitivity testing of tyrosine kinase inhibitors
# Type: cell-based, human
# Experimental: Briefly, the fresh breast cancer tissue is cut into small pieces using a sterile surgical knife. The tissue was digested and resuspended in 10 mL of TAC buffer, incubated for 3 minutes to remove red blood cells, and passed through a […] cell strainer (Corning). For passaging, 5 ml of harvesting solution (Trevigen, 3700-100-01) was used to digest the basement membrane extract (BME), which was incubated on ice for 1 hour. Subsequently, the organoids were centrifuged at 350 g for 5 minutes, washed in digestion buffer, and centrifuged. Next, 3 mL of TrypLE Express (Invitrogen) was added, and the organoids were incubated at room temperature for 3 minutes and then mechanically dissociated into small cell clusters using a pipette. The organoids were passaged every 2-3 weeks at a dilution ratio of 1:2-3.
# Drug response testing of triple-negative breast cancer (TNBC) organoids was conducted according to the method of the published paper (Xiao Y, Ma D, Yang YS, Yang F, Ding JH, Gong Y, et al. Comprehensive metabolomics expands precision medicine for triple-negative breast cancer. CELL RES. 2022;32(5):477-90 doi 10.1038/s41422-022-00614-0.). […] According to the manufacturer's instructions, organoid cell survival rate was assessed by the CellTiter-Glo 3D cell survival assay (Promega, G9683). […]
structure (smiles),measurement,setting,value
COc1cc2c(Nc3ccc(Br)cc3F)ncnc2cc1OCC1CCN(C)CC1 [vandetanib],IC50,"SNF4 tumors compared with other subtypes, PDO",lower than that of other subtypes
same,cell viability of SNF4 tumors,"after treatment, Wilcoxon test",significantly decreased
